# Measured values published in PubChem BioAssay AID1487 (National Center for Advancing Translational Sciences (NCATS), 2009).
# The other results are listed elsewhere or left out. Shown are side measurements of this screen, not its main read-out; they come without a call. Most of these compounds were active or inconclusive in the main read-out, so they are no random draw. Potencies come from curve fits of mixed quality, noted in brackets.
# Assay: qHTS Assay for Modulators of Lamin A Splicing
# Details: HeLa LMNA splicing GFP/RFP minigene ratio, 48 h
# Outline: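 S3 HeLa stable clones carrying a lamin A-EGFP splicing minigene plus DsRed2 were seeded at 600 cells/well in Opti-MEM with 2% FBS, pin-dosed and incubated 48 h at 37°C. Acumen cytometry (488 nm) gave the GFP/RFP total-intensity ratio.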
# [1] = measured here: RFP viability control channel
# [2] = measured here: GFP splicing reporter channel
Compound,AC50 [1],AC50 [2]
CCC(C)[C@@H](NC(=O)OC(C)(C)C)c1nnc(S(=O)(=O)Cc2cccc(C)c2)o1 (stereo not given in full),"14.1 µM [rising, partial curve]",–
Cc1ccc(S(=O)(=O)N2CCC(=O)N(CCOCc3ccc(C(F)(F)F)cc3)CC2)cc1,"3.55 µM [rising, full curve]","3.16 µM [rising, single point]"
CNc1nc2cc([N+](=O)[O-])c([N+](=O)[O-])cc2nc1NC,"2.82 µM [rising, partial curve]",–
O=c1[nH]n(-c2ncnc3c2cnn3-c2ccccc2)c(=O)c2ccccc12,"5.62 µM [falling, single point]",–
CCOc1ccccc1NC(=O)c1cc(S(=O)(=O)NC2CCCC2)ccc1F,–,"5.01 µM [falling, full curve, poor fit]"
COc1ccc(-n2nnnc2/C=C\Nc2ccccc2C(=O)c2ccccc2)cc1,"6.31 µM [falling, full curve]","6.31 µM [falling, full curve]"
Oc1ccccc1N=Nc1nc(-c2ccccc2)c(-c2ccccc2)[nH]1,"35.5 µM [falling, single point]","7.94 µM [falling, partial curve]"
NC(N)=Nc1nc(C2COc3ccccc3O2)cs1 (stereo not given),"11.2 µM [rising, partial curve]","8.91 µM [rising, partial curve]"
COc1ccc(CNc2nc3ccccc3n2CCN2CCOCC2)cc1,"12.6 µM [rising, single point]",–
COc1ccc(CNc2nc(-c3cccnc3)nc3ccccc23)c(OC)c1,"35.5 µM [falling, single point]",–
CCCn1c(SCC(=O)c2c(C)[nH]c(C)c2C(=O)OCC)nc2ccccc21,"0.316 µM [rising, full curve, poor fit]",–
COc1ccccc1C(NC(=O)C1CCCCC1)c1c(O)ccc2ccccc12 (stereo not given),"0.1 µM [rising, partial curve, poor fit]",–
CC(/C=C/c1ccccc1F)=N\NC(=O)C(C)C,–,"22.4 µM [falling, single point]"
CCNC(=S)Nc1scc(-c2ccccc2)c1C(=O)OCC,"0.0891 µM [rising, full curve, poor fit]",–
CN1CCN(CCCN2c3ccccc3Sc3ccc(S(=O)(=O)N(C)C)cc32)CC1,"0.00447 µM [falling, full curve, poor fit]","0.00501 µM [falling, full curve, poor fit]"
COc1ccc(NS(=O)(=O)c2cccc(-c3nnc(-c4ccccc4)o3)c2)cc1,"35.5 µM [rising, single point]","35.5 µM [rising, single point]"
CC1=C(C(=O)NCc2ccccc2C)C2(CCCCCC2)OC1=O,–,"0.02 µM [falling, partial curve, poor fit]"
O=C(NCc1cccnc1)c1cc(Sc2cccc(Cl)c2)nc2ccccc12,"22.4 µM [rising, partial curve]","20 µM [rising, single point]"
COc1ccc(C(=O)NCC(=O)OCc2ccccc2F)cc1,"0.02 µM [rising, full curve, poor fit]",–

Compound,AC50 [1],AC50 [2]
CCCOc1ccc(N2C(=O)CC(SCc3nc4ccccc4[nH]3)C2=O)cc1 (stereo not given),"0.631 µM [falling, full curve, poor fit]",–
CN(C)c1ccc2c(c1)OC(N)=C(C#N)C2c1cccc(F)c1 (stereo not given),"2 µM [rising, partial curve]",–
Nc1nonc1C(=O)NCCN=Cc1cc(Cc2ccccc2)cc(Br)c1O,"35.5 µM [rising, single point]","22.4 µM [rising, single point]"
COc1ccc(OC)c(NC(=O)c2cnc(N3CCCCC3)c3ccccc23)c1,"3.16 µM [falling, partial curve]","12.6 µM [falling, partial curve]"
Nc1nc(Cl)nc2c1ncn2[C@@H]1O[C@H](CO)[C@H](O)[C@H]1O,"22.4 µM [falling, partial curve, poor fit]","20 µM [falling, partial curve]"
C=CCNC(=S)Nc1c(N)n(C)c(=O)n(C)c1=O,–,"0.0158 µM [rising, full curve, poor fit]"
COc1cc(OC)cc(C(=O)Nn2cc(C(=O)Nc3ccc(F)cc3F)c3ccccc3c2=O)c1,"14.1 µM [rising, partial curve]","11.2 µM [rising, partial curve, poor fit]"
COc1ccccc1NC(=O)c1ccc(-c2nn(C)c(=O)c3ccccc23)cc1,–,"8.91 µM [falling, partial curve, poor fit]"
CS(=O)(=O)N(CC(=O)N1CCc2ccccc2C1)Cc1ccc(Cl)cc1,"12.6 µM [rising, single point]",–
COc1cccc(-n2nnnc2S(C)(=O)=O)c1,"12.6 µM [falling, partial curve]",–
Cc1noc(/C=C/c2ccco2)c1S(=O)(=O)N1CCC(C(=O)Nc2ccc(Cl)cn2)CC1,"2.82 µM [rising, full curve]","0.631 µM [rising, full curve, poor fit]"
Cc1nn(C)cc1CNC(=O)C1C2CCC(O2)C1C(=O)O (stereo not given),"35.5 µM [falling, single point]","15.8 µM [falling, single point]"
CCNC(=O)NC(=O)C(C)Sc1nc2cc(C(=O)OC)ccc2c(=O)n1-c1ccccc1 (stereo not given),"0.501 µM [falling, partial curve, poor fit]",–
O=S(=O)(c1ccc(NC(=S)NCCC(c2ccccc2)c2ccccc2)cc1)N1CCOCC1,"14.1 µM [rising, single point]",–
Cn1ncc(Cl)c1C(=O)Nc1sc2c(c1C(N)=O)CCC2,"35.5 µM [rising, single point]",–
CCNC(=S)N1CCN(CCN2C(=O)c3cccc4cccc(c34)C2=O)CC1,"0.02 µM [rising, full curve, poor fit]","0.0398 µM [rising, full curve, poor fit]"
COc1ccc2nc(NC(=O)c3cccc(OCc4c(C)noc4C)c3)sc2c1,"2.82 µM [rising, partial curve]",–
CC(c1ccccc1)C(Cc1nc2ccccc2[nH]1)c1nc2ccccc2[nH]1 (stereo not given),–,"6.31 µM [falling, single point]"
Clc1ccccc1CSc1cc2c(nn1)-c1ccccc1CC2,–,"8.91 µM [falling, partial curve, poor fit]"

Compound,AC50 [1],AC50 [2]
CC(=O)Nc1cccc(Nc2nc3ccccc3n3c(C)nnc23)c1,"0.0141 µM [rising, full curve, poor fit]","0.00794 µM [rising, full curve, poor fit]"
CCN(/N=C/c1ccccc1)c1cc(=O)n(C)c(=O)[nH]1,"2.51 µM [rising, partial curve, poor fit]",–
O=[N+]([O-])c1ccc(-n2nnnc2-c2ccccc2)c([N+](=O)[O-])c1,"15.8 µM [falling, single point]","35.5 µM [falling, single point]"
O=C(Nc1cccnc1)c1c(F)cccc1F,"0.02 µM [rising, full curve]",–
O=C(Cc1cccs1)NNC(=S)NC(=O)c1ccccc1,"22.4 µM [rising, single point]",–
O=C(CN1CCN(c2ccccn2)CC1)Nc1cccc(S(=O)(=O)N2CCOCC2)c1,"20 µM [falling, single point]",–
C=CCN1C(C(=O)c2ccccc2)=C(OC(=O)COc2ccccc2)c2ccccc2S1(=O)=O,"3.55 µM [rising, full curve]",–
Oc1ccc(-c2nnc(SCC3CCCCC3)o2)cc1,"35.5 µM [rising, single point]",–
CCOC(=O)c1sc(NC(=O)Nc2ccccc2Cl)cc1C,"15.8 µM [rising, single point]",–
CN(c1ccccc1)S(=O)(=O)c1cccc(C(=O)NNC(=O)c2ccccc2)c1,"35.5 µM [rising, single point]",–
CCN(CC)S(=O)(=O)c1cc(C(=O)Nc2cc(Cl)ccc2N2CCN(C)CC2)ccc1Cl,"20 µM [falling, single point]","2.51 µM [falling, partial curve]"
CN(C)c1oc(-c2ccc(COc3ccccc3)o2)nc1C#N,"35.5 µM [rising, single point]",–
Cc1cc(C)cc(NC(=O)CSc2nc3ncccc3[nH]2)c1,"35.5 µM [rising, single point]",–
Clc1ccc2c(N/N=C/c3ccccc3Br)ccnc2c1,–,"5.62 µM [rising, partial curve, poor fit]"
O=C(NCC(F)(F)F)Nc1nnc(C(F)(F)F)s1,"15.8 µM [rising, partial curve]",–
CS(=O)(=O)Nc1cccc(-c2nc(NC3CC3)c3ccccc3n2)c1,–,"15.8 µM [falling, partial curve, poor fit]"
Nc1ncnc(Sc2ccccc2)c1[N+](=O)[O-],"17.8 µM [rising, partial curve]",–
CS(=O)(=O)c1cccc(-c2nnc(NC(=O)c3ccc4c(c3)OCCO4)o2)c1,"2 µM [rising, full curve]","2.51 µM [rising, full curve, poor fit]"
CCOC(=O)/C=c1\s/c(=C\c2ccccc2OC)c(=O)n1CC(=O)N1CCOCC1,"0.891 µM [rising, partial curve]",–

# Looked up above.
# AC50 [1] with O=C(Nc1cccnc1)c1c(F)cccc1F is entered as 0.02 µM [rising, full curve]
# AC50 [1] with CCN(CC)S(=O)(=O)c1cc(C(=O)Nc2cc(Cl)ccc2N2CCN(C)CC2)ccc1Cl is entered as 20 µM [falling, single point]
# AC50 [2] with CS(=O)(=O)Nc1cccc(-c2nc(NC3CC3)c3ccccc3n2)c1 is entered as 15.8 µM [falling, partial curve, poor fit]
